Test results taken from patent US8148355B2, “Phophylactic and therapeutic use of hydroxysteroids” (Hunter-Fleming Limited, priority 2001, dated 2012).

Test system: Langendorf perfused male rat hearts
Test: Cardioprotective effect in Langendorf perfused rat hearts (regional ischaemia/reperfusion, infarct size)
Parameters: species or system Wistar rats

## C[C@]12CC[C@H](O)C[C@@H]1C[C@H](O)[C@@H]1[C@@H]2CC[C@]2(C)C(=O)CC[C@@H]12 [7βOH-EPIA, 7β-hydroxyepiandrosterone]
100 nM in perfusate
  Coronary flow: not influenced
100 nM in perfusate, control 109.3
  Risk zone volume (mm3): 98.9 mm3
100 nM, addition by itself before ischaemia
  heart function in conjunction with drug addition: did not result in detectable changes in heart function
100 nM, during regional ischaemia (p<0.05 at 25 minutes), disappeared after reperfusion
  global left ventricular systolic pressure parameters: slight reduction
100 nM, versus control
  decline of left ventricular developed pressure (LVDP) during regional ischaemia: larger in drug treated hearts compared to the control
100 nM, versus control group
  Heart-rate: not significantly different
  diastolic pressure: No differences
